Measured values published in US6036941A, “Fluorogenic substrates for diagnosis and photodynamic treatment of tumors” (Consiglio Nazionale Delle Ricerche, priority 1995, dated 2000).

Test system: rat glioma (C6) cells
Assay: Intracellular accumulation and hydrolysis kinetics in C6 cell cultures
Format: cell-based
Conditions: fluorescence pictures after treatment
Procedure: Evaluations of the kinetics of intracellular accumulation of Rose Bengal acetate were performed on cultures of an established cell line of rat glioma (C6) which grows as a monolayer. This cell line is widely used for pharmaco-kinetic studies of fluorescent substances with photosensitisation activity by virtue of its rapid proliferation activity and the possibility of modifying the physiological activities of the cells.
It is particularly important that, principally in short-term treatments, a continuous increase of intracellular Rose Bengal is recorded in the cells treated with the acetylated species, even when the cells are transferred into a medium devoid of this substance. This can easily be interpreted in terms of the balance between the processes of incorporation and hydrolysis. Since the process of incorporation is rapider than that of hydrolysis, inside the cells an accumulation is created of hydrolysable substance on which the enzyme can continue to effect its action through time.
Further, it is interesting to note that the kinetics of hydrolysis of Rose Bengal acetate is accelerated by the cellular environment: the Km passes from about 10^-3 M in conditions of hydrolysis in solution to about 10^-6 M in the cells.

Compound | localisation of fluorescence in the cells
CC(=O)Oc1c(I)cc2c(-c3c(Cl)c(Cl)c(Cl)c(Cl)c3C(=O)O)c3cc(I)c(=O)c(I)c-3oc2c1I [Rose Bengal acetate] | all the cellular compartments except the nucleus
O=C(O)c1c(Cl)c(Cl)c(Cl)c(Cl)c1-c1c2cc(I)c(=O)c(I)c-2oc2c(I)c(O)c(I)cc12 [Rose Bengal, reference compound] | limited to the cellular membrane
